Results: PubChem BioAssay AID2685 (National Center for Advancing Translational Sciences (NCATS), 2010)
This is one part of the list. The main result of the screen is listed elsewhere. These columns were measured beside it and carry no call. Most of these compounds were active or inconclusive in the main read-out, so they are no random draw. Potencies come from curve fits of mixed quality, noted in brackets.

Experiment: qHTS Assay for Lipid Storage Modulators in Drosophila S3 Cells;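 for cell number change: cells counted by Cell Tracker Red CMTPX staining in the red channel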
Settings: BODIPY lipid droplet fluorescence, 18-24 h; for cell number change: measured here: cell count max response, cells fed with added oleic acid
Procedure, shortened: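 Drosophila S3 cells loaded with oleic acid (400 uM, as added) and compounds at several concentrations; lipid droplets imaged by 488-nm laser-scanning cytometry, 500–530 nm intensity and object ratio to cell channel. Percent activity normalized to 20 uM Triacsin C.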

[1] = measured here: cell number channel AC50, cells fed with added oleic acid
[2] = measured here: lipid fluorescence (Fed channel) AC50, cells fed with added oleic acid

Compound | cell number change | AC50 [1] | AC50 [2]
CCN(CC(=O)Nc1ccc(OC)cc1)C(=O)c1ccc(NS(=O)(=O)c2ccc(C(C)=O)cc2)cc1 | 17.3% | – | –
O=C(Nc1cccc(C(F)(F)F)c1)c1cccnc1N1CCN(c2ccccc2)CC1 | -4.82% | 0.461 µM [rising, partial curve] | 0.461 µM [rising, full curve]
O=C(NCc1cccnc1)C(=O)N/N=C/c1ccc([N+](=O)[O-])cc1 | -18.3% | – | 6.51 µM [falling, single point]
CCOC(=O)[C@H]1[C@H]2COc3ccccc3[C@@H]2N2C(=O)[C@@H](CO)NC(=O)[C@@]12C | -4.41% | – | 2.91 µM [rising, partial curve]
Cc1cc(C(=O)NC(CC(C)C)C(=O)O)cc(C)c1[N+](=O)[O-] (stereo unspecified) | 35.5% | 16.4 µM [rising, single point] | 0.0146 µM [falling, full curve]
Cc1ccc(-c2nnc3ccc(SCC(=O)Nc4cc(C)on4)nn23)cc1 | 1.9% | – | –
O=C(NC1CC(=O)N(c2ccccc2)C1)C1CC1 (stereo unspecified) | -27.7% | – | –
Cc1cc(OCC(=O)NCc2cccnc2)c2c(C)c(Cc3ccccc3)c(=O)oc2c1 | -12.5% | – | 29.1 µM [falling, single point]
S=C1NCN(Cc2cccnc2)CN1 | 2.75% | 5.17 µM [falling, single point] | 2.31 µM [falling, partial curve, poor fit]
O=C(O)CCc1ccc(-c2ccccc2)n1Cc1ccco1 | -12% | – | 6.51 µM [falling, single point]
O=C(CC1OC(=O)c2ccccc21)c1ccco1 (stereo unspecified) | -28.5% | – | 0.517 µM [falling, full curve]
C/C(=N\NC(=O)CNC(=O)c1ccc(F)cc1)c1ccco1 | -11.3% | – | 29.1 µM [rising, single point]
COc1ccc(Nc2oc(COc3ccccc3F)nc2C#N)cc1 | -0.962% | – | 1.16 µM [falling, single point]
CCN(CC(=O)NC1CCS(=O)(=O)C1)C(C)C(=O)Nc1ccc(F)cc1 (stereo unspecified) | 13.2% | 7.31 µM [falling, single point] | 9.2 µM [rising, partial curve]
CC(=O)c1cccc(NC(=O)COC(=O)COc2ccccc2C)c1 | -14.8% | – | 29.1 µM [falling, single point]
Cc1ccc(OCC(=O)n2nc(C)cc2C)c(Br)c1 | 26.1% | – | 0.116 µM [rising, full curve, poor fit]
CCOc1ccccc1NC(=O)CC1Nc2cc(C)c(C)cc2NC1=O (stereo unspecified) | 180% | – | 18.4 µM [rising, partial curve]
CCN(CC)C(=O)Cn1cc(C(=O)C(=O)N2CCN(c3ccccc3)CC2)c2ccccc21 | 3.24% | – | 29.1 µM [rising, single point]
Cc1cccc(N(CC(O)CON=C2c3ccccc3-c3ccccc32)S(C)(=O)=O)c1 (stereo unspecified) | -62.8% | 20.6 µM [falling, single point] | 32.6 µM [rising, single point]
O=C(NC1(C(F)(F)F)NC(=O)N(Cc2ccco2)C1=O)c1cccnc1 (stereo unspecified) | 30.1% | 5.8 µM [rising, full curve, poor fit] | 3.26 µM [falling, partial curve]
COc1cccc([C@@H]2Oc3ccc(OC)cc3C(=O)[C@H]2OC(=O)NCc2ccc3c(c2)OCO3)c1 | 4.87% | 4.11 µM [rising, single point] | 0.259 µM [rising, full curve, poor fit]

Compound | cell number change | AC50 [1] | AC50 [2]
CCc1ccc(N2CC(C(=O)Nc3nnc(CC)s3)CC2=O)cc1 (stereo unspecified) | 10.2% | – | –
CC1C2CC(C(CN(C)C)/C2=N/O)C1(C)C (stereo unspecified) | -28.2% | – | 2.91 µM [falling, full curve]
COc1ccc([C@H]2CC(=O)C=C(c3ccc(C)c4ccccc34)C2)cc1 | -14.2% | – | 1.3 µM [falling, partial curve]
NNC(=O)c1[nH]c2ccccc2c1-c1ccccc1 | -1.73% | – | 0.00517 µM [rising, full curve, poor fit]
CCNC(=S)N/N=C/c1c(C)nn(-c2cccc(Cl)c2)c1Cl | -19.1% | – | 6.51 µM [rising, single point]
CCn1c(CCCc2ccc(OC)c(C)c2)n[nH]c1=S | 0.955% | – | –
CC1CCN(c2c(NCC3CCC(C(=O)NCc4ccc(F)cc4)CC3)c(=O)c2=O)CC1 (stereo unspecified) | -1.9% | – | –
COc1ccc(S(=O)(=O)Nc2cc3c4c(c2)CCC(=O)N4CCC3)cc1C | 52.2% | 2.91 µM [rising, partial curve] | –
CCCN1CCN(CCCNC(=O)CN2C(=O)C(CC)Oc3ccccc32)CC1 (stereo unspecified) | 21.7% | – | 0.411 µM [falling, full curve]
CS/C(=C\[N+](=O)[O-])Nc1ccc(F)cc1 | 52.8% | 29.1 µM [rising, single point] | 0.517 µM [falling, full curve]
CC(C)c1ccccc1NC(=O)c1cccc(NC(=O)c2ccccc2)c1 | 40.4% | 0.82 µM [rising, full curve] | 5.17 µM [rising, partial curve]
CC1Cc2cc(S(=O)(=O)CCC(=O)NCc3ccco3)ccc2N1C(=O)C1CC1 (stereo unspecified) | 15.3% | – | –
CC(C)=C1C2C=CC1C(C(=O)Nc1cc(C)ccc1C)C2C(=O)O (stereo unspecified) | 31.3% | 13 µM [rising, single point] | –
CCc1nccn1CCC(=O)N1CCCC(N2CCN(c3ccccc3F)CC2)C1 (stereo unspecified) | -6.93% | – | 29.1 µM [rising, single point]
C/C=C/C=N/NC(=O)CN(c1ccc(Br)cc1)S(=O)(=O)c1ccccc1 | 5.14% | – | –
Cc1cccc(C)c1NC(=O)CCCSc1nnc(N)s1 | – | 0.13 µM [rising, full curve, poor fit] | –
CC(=O)Nc1ccc(S(=O)(=O)Nc2nccc(/C=C/c3ccccc3F)n2)cc1 | 1.09% | 0.291 µM [rising, partial curve] | –
COc1cc(C2Nc3cc(Cl)c(S(N)(=O)=O)cc3S(=O)(=O)N2)cc(OC)c1OC (stereo unspecified) | -40.6% | 29.1 µM [falling, single point] | 1.3 µM [falling, full curve]
Cc1ccc(N2C(=O)C3ON(c4ccccc4)C(CC(C)C)C3C2=O)cc1 (stereo unspecified) | -9.9% | – | 0.0651 µM [falling, full curve, poor fit]
COc1ccc(N2CC(C(=O)N3CCOCC3)CC2=O)cc1 (stereo unspecified) | 19.4% | – | –
O=C(NCc1ccco1)c1cc(S(=O)(=O)N2CCOCC2)ccc1Br | -6.52% | 7.31 µM [falling, single point] | –

Compound | cell number change | AC50 [1] | AC50 [2]
O=C(COc1ccccc1Cl)Nc1ccc(S(=O)(=O)Nc2ccccn2)cc1 | 9.01% | – | 1.46 µM [falling, full curve]
O=C(c1ccc(Cl)c(S(=O)(=O)N2CCCCC2)c1)N1CCCC1 | 24.8% | – | 29.1 µM [rising, partial curve, poor fit]
CCS(=O)(=O)Nc1cccc(-c2nc3cccnc3s2)c1 | 22.6% | – | 0.92 µM [rising, full curve]
CC(C)(C)C(=O)COC(=O)c1ccc2c(c1)C(=O)N(Cc1ccco1)C2=O | – | – | 0.291 µM [falling, partial curve, poor fit]
O=C(NC1CCS(=O)(=O)C1)C12CC3CC(CC(C3)C1)C2 (stereo unspecified) | -28.2% | – | 11.6 µM [falling, partial curve]
O=c1[nH]c2ccccc2c(O)c1-c1cc2ccccc2oc1=O | -38% | 4.11 µM [falling, full curve] | 29.1 µM [falling, single point]
COc1ccc(CNC(=O)C(=O)NCC2OCCCN2S(=O)(=O)c2cccs2)cc1 (stereo unspecified) | 10.2% | – | 0.112 µM [rising, full curve, poor fit]
CCOc1c2ccc(C(=O)NCc3ccco3)cc2nn1CC | 11.4% | – | –
C=CCC(O)(CC=C)CNC(=O)C1CCC(=O)N(CCCc2ccccc2)C1 (stereo unspecified) | -3.94% | – | 29.1 µM [rising, single point]
CC(=O)NS(=O)(=O)c1cccnc1Nc1cccc(Cl)c1C | -0.546% | – | 0.00411 µM [rising, full curve, poor fit]
COc1ccc(C)cc1NC(=O)c1cccc(C(=O)Nc2cc(C)ccc2OC)n1 | 4.74% | – | –
Cc1ccc(Oc2cc(N3CCOCC3)nc(-c3ccccc3)n2)cc1 | – | – | 32.6 µM [falling, single point]
Cc1nn(-c2ccccc2)c(Cl)c1/C=N/Nc1ccc(Cl)c(C(=O)O)c1 | 10.4% | 6.51 µM [rising, single point] | –
C=C(C)c1ccccc1NC(=O)CCN1C(=O)c2ccccc2S1(=O)=O | -7.69% | – | 29.1 µM [falling, single point]
O=C(C(=O)N1CC=C(c2ccccc2)CC1)c1c[nH]c2ccccc12 | 17.9% | – | –
COC(=O)C1CCN(Cc2ccc(C)cc2)CC1 | -24.8% | 0.651 µM [falling, full curve, poor fit] | 29.1 µM [falling, single point]
O=C(Oc1c(Cl)cc(Cl)c2ccccc12)N1CCCC1 | -1.04% | – | 2.31 µM [rising, single point]
CCN(Cc1cc2cc(OC)ccc2[nH]c1=O)C(=O)c1ccncc1 | 11.4% | 0.651 µM [falling, full curve, poor fit] | 29.1 µM [rising, single point]
O=C1NC(c2ccc(Br)cc2)Nc2sc3c(c21)CCC3 (stereo unspecified) | -56% | 25.9 µM [falling, partial curve, poor fit] | 6.51 µM [rising, single point]

One compound at a time, as listed above. Order of values: cell number change | AC50 [1] | AC50 [2]
C/C=C/C=N/NC(=O)CN(c1ccc(Br)cc1)S(=O)(=O)c1ccccc1 is listed with 5.14% | – | –
Cc1ccc(OCC(=O)n2nc(C)cc2C)c(Br)c1 is listed with 26.1% | – | 0.116 µM [rising, full curve, poor fit]
CCCN1CCN(CCCNC(=O)CN2C(=O)C(CC)Oc3ccccc32)CC1 (stereo unspecified) is listed with 21.7% | – | 0.411 µM [falling, full curve]
COc1ccc(N2CC(C(=O)N3CCOCC3)CC2=O)cc1 (stereo unspecified) is listed with 19.4% | – | –
